Legend:
[1] = S.P.I. exotherm, curing an unsaturated polyester-styrene resin (Table V); conditions: 115° C., 1% concentration
Protocol: An unsaturated polyester resin was made by reacting maleic anhydride (1.0 mole), phthalic anhydride (1.0 mole), and propylene glycol (2.2 mole) until an acid number of 45-50 was obtained. To this was added hydroquinone at a 0.013% concentration. Seven parts of this unsaturated polyester was diluted with 3 parts of monomeric styrene to obtain a homogeneous blend having a viscosity of 13.08 poise and a specific gravity of 1.14. To 20 g. of this blend was added the 0.2 g. of the desired coupled peroxide and the resulting composition placed in a constant temperature bath at 115° C.
The internal temperature was recorded as function of time. The following results were obtained with some of the coupled compounds (Table V):
S.P.I. EXOTHERM AT 115° C. AND 1% CONCENTRATION
IN POLYESTER RESIN PREPARED IN EXAMPLE VIII

[2] = Vulcanization of ethylene-propylene rubber formulation (Table III); conditions: peroxide 0.010 mole equivalent, 340° F., 30 minutes, sulfur 0.33 parts
[3] = Vulcanization of urethane rubber formulation (Table II); conditions: 0.010 mole equivalent of peroxide, 340° F., 30 minutes

Compound	Barcol Hardness [1]	300% Modulus [2] [psi]	% Elongation [2] [%]	Ult. Tensile [2] [psi]	300% Modulus [3] [psi]	% Elongation [3] [%]
CC(C)(C)OOC(=O)CCOC(=O)OCCC(=O)OOC(C)(C)C [Di[2-(t-butylperoxycarbonyl)ethyl]carbonate]	45					
CC(CC(C)(C)OOC(C)(C)C)OC(=O)CCC(=O)OC(C)CC(C)(C)OOC(C)(C)C (stereo not drawn) [Di[1,3-dimethyl-3-(t-butylperoxy)butyl]succinate]		715	710	2096	1472	575
CC(CC(C)(C)OOC(C)(C)C)OC(=O)OCCOC(=O)OC(C)CC(C)(C)OOC(C)(C)C (stereo not drawn) [Ethylene Bis[1,3-dimethyl-3-(t-butylperoxy)-butyl carbonate]]	45	1089	552	2232	2419	375
CC(CC(C)(C)OOC(C)(C)C)OC(=O)OC(C)CC(C)(C)OOC(C)(C)C (stereo not drawn) [Di[1,3-dimethyl-3-(t-butylperoxy)butyl] carbonate]	45	1004	567	2118	2091	493

From patent publication US4072810A, “Coupled peroxides” (priority 1973, dated 1978)
